Source: PubChem BioAssay AID504749 (NCATS, 2011).

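A panel of P. falciparum strains inside erythrocytes is exposed to compounds for three days, then a DNA-binding dye reports the amount of parasite DNA.
Each compound was titrated across a series from about 0.000037 to 29 µM.
The number is the fitted AC50, the concentration giving a half-maximal change in signal; a lower value means higher potency, whether the curve shows a decrease or an increase.
Calls follow the curve class and fit quality: every row here is inconclusive, covering signal-raising curves and weak, poorly fitted, partial or highest-dose-only inhibition curves.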

Values are in µM.
All entries here are filed as inconclusive.
These entries are mostly ones the record files as inconclusive; other results of the assay are not listed here.
A potency from a partial, single-point or poor curve is only a rough figure.

O=c1c(O)c(-c2ccc(O)c(O)c2)oc2cc(O)cc(O)c12 [CP238] read Potency 11.22 µM (inhibitor, single point).
O=c1c(O)c(-c2ccc(O)c(O)c2)oc2cc(O)cc(O)c12 [CP268] read Potency 16.94 µM (inhibitor, single point).
O=c1c(O)c(-c2ccc(O)c(O)c2)oc2cc(O)cc(O)c12 [ATS189] read Potency 11.22 µM (inhibitor, single point).
O=c1c(O)c(-c2ccc(O)c(O)c2)oc2cc(O)cc(O)c12 [CP194] read Potency 16.94 µM (inhibitor, single point).
O=c1c(O)c(-c2ccc(O)c(O)c2)oc2cc(O)cc(O)c12 [TAB109] read Potency 11.22 µM (inhibitor, single point).
O=c1c(O)c(-c2ccc(O)c(O)c2)oc2cc(O)cc(O)c12 [W2] read Potency 19.01 µM (inhibitor, single point).
O=c1c(O)c(-c2ccc(O)c(O)c2)oc2cc(O)cc(O)c12 [DIV17] read Potency 19.01 µM (inhibitor, single point).
O=c1c(O)c(-c2ccc(O)c(O)c2)oc2cc(O)cc(O)c12 [CP325] read Potency 19.01 µM (inhibitor, single point).
O=c1c(O)c(-c2ccc(O)c(O)c2)oc2cc(O)cc(O)c12 [CP335] read Potency 13.46 µM (inhibitor, single point).
O=c1c(O)c(-c2ccc(O)c(O)c2)oc2cc(O)cc(O)c12 [PC15] read Potency 10 µM (inhibitor, single point).
O=c1c(O)c(-c2ccc(O)c(O)c2)oc2cc(O)cc(O)c12 [CP262] read Potency 15.1 µM (inhibitor, single point).
O=c1c(O)c(-c2ccc(O)c(O)c2)oc2cc(O)cc(O)c12 [CP291] read Potency 12 µM (inhibitor, partial curve).
O=c1c(O)c(-c2ccc(O)c(O)c2)oc2cc(O)cc(O)c12 [CP260] read Potency 11.22 µM (inhibitor, single point).
O=c1c(O)c(-c2ccc(O)c(O)c2)oc2cc(O)cc(O)c12 [CP329] read Potency 16.94 µM (inhibitor, single point).
O=c1c(O)c(-c2ccc(O)c(O)c2)oc2cc(O)cc(O)c12 [P94_40] read Potency 17.78 µM (inhibitor, single point).
O=c1c(O)c(-c2ccc(O)c(O)c2)oc2cc(O)cc(O)c12 [CP201] read Potency 16.94 µM (inhibitor, single point).
O=c1c(O)c(-c2ccc(O)c(O)c2)oc2cc(O)cc(O)c12 [CP250] read Potency 17.78 µM (inhibitor, single point).
O=c1c(O)c(-c2ccc(O)c(O)c2)oc2cc(O)cc(O)c12 [CP211] read Potency 13.46 µM (inhibitor, single point).
O=c1c(O)c(-c2ccc(O)c(O)c2)oc2cc(O)cc(O)c12 [CP192] read Potency 13.46 µM (inhibitor, single point).
O=c1c(O)c(-c2ccc(O)c(O)c2)oc2cc(O)cc(O)c12 [CP297] read Potency 19.01 µM (inhibitor, single point).
O=c1c(O)c(-c2ccc(O)c(O)c2)oc2cc(O)cc(O)c12 [CP269] read Potency 19.01 µM (inhibitor, single point).
O=c1c(O)c(-c2ccc(O)c(O)c2)oc2cc(O)cc(O)c12 [ATS95] read Potency 10 µM (inhibitor, single point).
O=c1c(O)c(-c2ccc(O)c(O)c2)oc2cc(O)cc(O)c12 [SC27B] read Potency 17.78 µM (inhibitor, single point).
O=c1c(O)c(-c2ccc(O)c(O)c2)oc2cc(O)cc(O)c12 [Dd2] read Potency 10 µM (inhibitor, single point).
O=c1c(O)c(-c2ccc(O)c(O)c2)oc2cc(O)cc(O)c12 [C2A] read Potency 11.22 µM (inhibitor, single point).
O=c1c(O)c(-c2ccc(O)c(O)c2)oc2cc(O)cc(O)c12 [HB3] read Potency 14.13 µM (inhibitor, single point).